Test results published in patent publication US6841535B2, “Peptide-mediated transfection agents and methods of use” (Active Motif, priority 2000, dated 2005).
Part of at least one peptide drawing is inferred or uncertain, most often the ends. *1 amine or outer side, *2 acyl side, *3 side chain or, on linkers, in order; H or OH if unused. Where a SMILES comes first, the peptide text is derived from it. Cysteamide = C(CS[*:3])N[*:1]

Tests used:
HS-68 human fibroblasts [1] = assay: Transfer of fluorescently labeled mRNA into cells; assay type: cell-based; conditions: within 1 h incubation
HS68 fibroblasts = assay: MPG delivery of pcDNA3.1NT-GFP plasmid, GFP expression by fluorescence microscopy; assay type: cell-based, human; conditions: 10% FCS, 24 h after transfection, ratio 5:1
HS-68 human fibroblasts [2] = assay: Kinetics of expression of mRNA encoding renilla luciferase; assay type: cell-based
NIH 3T3 fibroblasts = assay: MPG-mediated pRL-SV40 plasmid delivery, luciferase expression; assay type: cell-based, murine
[3] = Quasielastic light scattering (QELS) of MPG/DNA particles; assay type: physicochemical; conditions: charge ratio of 3:1; preliminary
[4] = biological target: mRNA encoding the p66 subunit of HIV-1 RT; assay: Binding of peptide [5] to mRNA by quenching of intrinsic fluorescence; conditions: single stranded mRNA; read-out: dissociation constant
HS-68 fibroblasts [5] = assay: MPG-mediated delivery of antisense cdc25C plasmid, mitotic phenotype counts; assay type: cell-based, human; conditions: mock transfection with MPG alone, compared to non-transfected cells
[6] = tested on: COS-7, NIH 3T3 and HS-68 cell lines; assay: pRL-SV40 plasmid delivery, luciferase expression, results stated for several cell lines together; assay type: cell-based; conditions: fibroblasts or COS-7
HS-68 fibroblasts [7] = assay: MPG-mediated pRL-SV40 plasmid delivery, luciferase expression; assay type: cell-based, human
pRL-SV40 plasmid = assay: Fluorescence titration of MPG with plasmid (quenching of intrinsic tryptophan fluorescence); assay type: binding; conditions: MPG 10 μM, 25° C. in PBS; read-out: Kd (best fit, FIG. 1A)
COS-7 cells = assay: MPG-mediated pRL-SV40 plasmid delivery, luciferase expression; assay type: cell-based, simian
C2C12 myoblasts = assay: as above; assay type: cell-based
[8] = tested on: HS-68 and NIH 3T3 cell lines; assay: Protein delivery by vector peptides (GFP); assay type: cell-based; conditions: transfection of GFP; incubated with peptide at a molar ratio of 1:20; 1 h
Method: (§1) We evaluated the ability of peptides designed according to principles described herein, as well as variants thereof, to deliver peptides and proteins into HS-68 and NIH 3T3 cell lines. Peptide delivery was performed with a 32 mer peptide (peptide B), and in some cases a […] peptide (peptide A). The peptides were fluorescently labeled. Peptides (5.0×10^−8M or 5.0×10^−7M) were incubated with one micromolar vector peptide in cell culture medium in the absence of serum for 30 min. Cultured cells (0.5 to 1.0×10^6) were then overlaid with the preformed peptide/vector peptide complexes in 500 μL DMEM for one hour in the presence or absence of FCS. Complexes were formed prior to addition of FCS to avoid interactions between ep-vector and serum proteins. Following this transfection step, fresh DMEM supplemented with serum was added for another hour. Then cells were extensively washed, fixed and analyzed by fluorescence microscopy.
To investigate protein delivery we tested the delivery into cells of the fluorescent protein GFP. The protein was incubated with peptide at a molar ratio of 1:20, followed by overlay of the complex onto cultured cells. This was followed by incubation for 1 h. Then cells were extensively washed and fixed with formalin before observation. […]

[9] = tested on: human fibroblastic cell line (HS-68) and Cos-7; assay: Pep-2-mediated delivery of GFP and β-Gal proteins into cells; assay type: cell-based; conditions: molar ratio vector/protein of 40:1
Method: The efficiency of transfection was determined by counting fluorescent cells or blue stained cells. (A) Control of beta gal in the absence of Pep-2, (B) Pep-2 delivery of beta gal at 37 degrees C., (C) Pep-2 delivery of beta gal at 4 degrees C., (D) Pep-2 delivery of GFP at 37 degrees C. (E) concentration dependent Pep-2 delivery of GFP. Experiments were performed in the absence (open bars) or presence (dark bars) of serum.
We next evaluated the ability of Pep-2 to deliver peptides and LMW and HMW proteins into a human fibroblastic cell line (HS-68) and Cos-7. […] Following this transfection step, fresh DMEM supplemented with serum was added to the cells for another 30 minutes, after which cells were extensively washed, and examined by fluorescence microscopy. […] Finally, we evaluated the effect of serum in the cell culture medium on the efficiency of peptide transfection.
To investigate protein delivery we chose to monitor cell delivery of three very different types of proteins: 30 kDa GFP, 119 kDa β-Gal, and specific antibodies. […] Cells were then extensively washed prior to observation and the efficiency of protein delivery was determined by counting fluorescent cells or by monitoring enzymatic β-galactosidase activity by X-Gal staining. […]

[10] = tested on: HS-68 and NIH 3T3 cell lines; assay: Peptide delivery by vector peptides (fluorescently labeled peptide B / peptide A); assay type: cell-based; conditions: transfection of fluorescently labeled peptide; one micromolar vector peptide; 1 h
Method: as §1
(§2) The results of the experiments testing the transfection properties of the peptides are presented as a table in which the sequences are aligned for optimal comparison: […]

[11] = tested on: HS-68 and NIH 3T3 cell lines; assay: Drug delivery by vector peptides (ANS and Bis-ANS); assay type: cell-based; conditions: transfection of ANS and Bis-ANS; incubated with peptide at a molar ratio of 1:20; 1 h
Method: For investigation of drug delivery, we used the naphthalene derivatives ANS and Bis-ANS, which have intrinsic fluorescence. The drugs was incubated with peptide at a molar ratio of 1:20, followed by overlay of the complex onto cultured cells. This was followed by incubation for 1 h. Then cells were extensively washed and observed by microscopy.
as §2

CSCC[C@H](NC(=O)[C@@H](NC(=O)[C@H](CO)NC(=O)CNC(=O)[C@H](C)NC(=O)[C@H](C)NC(=O)CNC(=O)[C@H](CC(C)C)NC(=O)[C@H](Cc1ccccc1)NC(=O)CNC(=O)[C@H](CC(C)C)NC(=O)[C@H](Cc1ccccc1)NC(=O)[C@H](CC(C)C)NC(=O)[C@H](C)NC(=O)CNC(C)=O)[C@@H](C)O)C(=O)NCC(=O)N[C@@H](C)C(=O)N[C@@H](Cc1c[nH]c2ccccc12)C(=O)N[C@@H](CO)C(=O)N[C@@H](CCC(N)=O)C(=O)N1CCC[C@H]1C(=O)N[C@@H](CCCCN)C(=O)N[C@@H](CO)C(=O)N[C@@H](CCCCN)C(=O)N[C@@H](CCCNC(=N)N)C(=O)N[C@@H](CCCCN)C(=O)N[C@H](C(=O)NCCS)C(C)C [MPG] (Ac-GALFLGFLGAAGSTMGAWSQPKSKRKV-Cysteamide)
cells transfected (peptide-assisted transfer of mRNA) (HS-68 human fibroblasts [1]): 90% | cells expressing GFP (HS68 fibroblasts): > 90% | time of maximal expression after transfection (HS-68 human fibroblasts [2]): 6 h | reduction of transfection efficiency by 10% FCS (NIH 3T3 fibroblasts; MPG/DNA charge ratio 10:1): 16% | luciferase activity (NIH 3T3 fibroblasts; charge ratio 10:1): 1.9 U/mg of protein | average diameter of MPG/DNA particles [3]: 200-300 nm | Kd [4]: ~100 nM | ability of cells to enter mitosis (HS-68 fibroblasts [5]): no effect | degree of transfection relative to Lipofectamine (higher) [6]: at least twice | effect of 10% FCS on efficiency of transfection (HS-68 fibroblasts [7]; MPG/DNA charge ratio 10:1): insensitive | luciferase activity (HS-68 fibroblasts [7]; charge ratio 10:1): 2.4 U/mg of protein | Kd (pRL-SV40 plasmid): 5 nM | effect of 10% FCS on efficiency of transfection (COS-7 cells; MPG/DNA charge ratio 10:1): insensitive | luciferase activity (COS-7 cells; charge ratio 10:1): 2.45 U/mg of protein | degree of transfection relative to Lipofectamine (higher) (C2C12 myoblasts; C2C12 myoblasts): seven times | reduction of transfection efficiency by 10% FCS (C2C12 myoblasts; MPG/DNA charge ratio 10:1): 10% | specific luciferase activity at maximal transfection (C2C12 myoblasts; charge ratio 15:1): 1.6 U/mg of protein

CC(=O)N[C@@H](Cc1ccc(O)cc1)C(=O)NCC(=O)N[C@@H](Cc1ccccc1)C(=O)N[C@@H](CCCCN)C(=O)N[C@@H](CCCCN)C(=O)N[C@@H](CCCNC(=N)N)C(=O)N[C@@H](CCCNC(=N)N)C(=O)N[C@@H](Cc1c[nH]c2ccccc12)C(=O)N[C@@H](CO)C(=O)N[C@@H](CCC(N)=O)C(=O)N1CCC[C@H]1C(=O)N[C@@H](CCCCN)C(=O)N[C@@H](CCC(=O)O)C(=O)N[C@H](C(=O)N[C@@H](Cc1c[nH]c2ccccc12)C(=O)N[C@@H](CCC(=O)O)C(=O)N[C@H](C(=O)N[C@@H](Cc1c[nH]c2ccccc12)C(=O)N[C@@H](Cc1c[nH]c2ccccc12)C(=O)N[C@H](C(=O)N[C@@H](CCC(=O)O)C(=O)NCCS)[C@@H](C)O)[C@@H](C)O)[C@@H](C)O [Pep-1-cya] (Ac-YGFKKRRWSQPKETWETWWTE-Cysteamide)
Pro [8]: 80% | efficiency of protein delivery [9]: more than 80% | Pep [10]: 80% | Drug [11]: 5%
